# Measurements published in PMC12670160, “A drug-repurposing screen of FDA- and EMA-approved drugs identifies two NF-κB inhibitors active against eumycetoma” (Journal of Antimicrobial Chemotherapy, 2025).
# Where a name gives a salt, the structure may show the parent alone. In all, about 5,300 compounds went through this assay and about 130 (2.5%) showed an effect of 50% or more. The list shows a part of the results.
# Test system: M. mycetomatis strain mm55
# Details: primary screen, metabolic activity vs growth control; 96 h, 2 µM; inhibitor
row,SMILES,% viability [%]
1,"OC[C@H]1NCC[C@@H](O)[C@@H]1O [ONC0001187, fagomine]",79.21
2,"CCOc1ccccc1OCCN[C@H](C)Cc1ccc(OC)c(S(N)(=O)=O)c1 [ONC0005618, tamsulosinhcl]",58.79
3,"CN(C)/N=N/c1ccc(C(=O)O)cc1 [ONC0003759, cb10277]",106.9
4,"CCCCCCCCCCCCC[N+](C)(C)Cc1ccccc1 [ONC0002405, benzalkonium chloride hydrate]",106.8
5,"CCCS(=O)(=O)Nc1ccc(F)c(C(=O)c2c[nH]c3ncc(-c4ccc(Cl)cc4)cc23)c1F [ONC0002270, vemurafenib]",101.3
6,"CC(=O)[C@H]1CC[C@H]2[C@@H]3C[C@H](C)C4=CC(=O)CC[C@]4(C)[C@H]3[C@@H](O)C[C@]12C [ONC0000445, medrysone]",69.04
7,"CCOC(=O)OC(C)OC1=C(C(=O)Nc2ccccn2)N(C)S(=O)(=O)c2ccccc21 (stereo not shown) [ONC0001016, ampiroxicam]",79.42
8,"O=C(Nc1c(Cl)cncc1Cl)c1ccc(OC(F)F)c(OCC2CC2)c1 [ONC0004773, roflumilast daxas]",94
9,Cc1cccc(-c2[nH]c(CNc3ccccc3F)nc2-c2ccc3ncnn3c2)n1 [ONC0005154],115.6
10,"Cc1ccccc1/N=N/c1ccc(NC(=O)c2ccnn2C)c(C)c1 [ONC0000197, ch223191]",60.65
11,"C[C@@H]1CC(=O)c2c(ccc3c2C(=O)c2cccc(O)c2C3=O)C1 [ONC0003376, ochromycinone]",63.31
12,"O=C(O)c1cc(-c2ccc(F)cc2F)ccc1O [ONC0000442, diflunisal]",77.61
13,"CCCCNC(=O)NS(=O)(=O)c1ccc(C)cc1 [ONC0000556, tolbutamide]",97.76
14,"COc1cc(C=O)c([N+](=O)[O-])cc1OC [ONC0004335, dmnb]",105.9
15,"COC(=O)[C@@H]1[C@H]2C[C@H]3c4[nH]c5ccccc5c4CCN3C[C@@H]2CC[C@@H]1O [ONC0003380, yohimbine hydrochloride]",81.44
16,"CCOc1cc(/C=C2/C(=O)N(c3ccccc3)N=C2C)cc(Cl)c1OCC(=O)OC [ONC0001388, sj172550]",101.6
17,CCCCC(CC)CNC(=N)NC(=N)NCCCCCCNC(=N)NC(=N)NCC(CC)CCCC (stereo not shown) [Alexidine dihydrochloride],2.643
18,"CC(C)(c1ccc(O)cc1)c1ccc(O)cc1 [ONC0002174, bisphenola]",73.02
19,"CC1(C)NC(=O)N(c2ccc([N+](=O)[O-])c(C(F)(F)F)c2)C1=O [ONC0002400, nilutamide]",83.69
20,"N[C@@H](CC(=O)Nc1ccc(Oc2cc(F)c(F)cc2Br)cc1)C(=O)O [ONC0003568, way213613]",97.57
21,"CCCCCCc1ccc(O)cc1O [ONC0000355, hexylresorcinol]",72.69

row,SMILES,% viability [%]
1,"Cc1[nH]c(/C=C2\C(=O)Nc3ccc(S(=O)(=O)N(C)c4cccc(Cl)c4)cc32)c(C)c1C(=O)N1CCN(C)CC1 [ONC0004586, su11274]",73.21
2,"O=C(/C=C\n1cnc(-c2cc(C(F)(F)F)cc(C(F)(F)F)c2)n1)NNc1cnccn1 [ONC0005120, selinexor kpt330]",72.15
3,"CN(C)Cc1ccc(-c2nc3cccc4c3n2CCNC4=O)cc1 [ONC0005276, ag14361]",155.3
4,"CNc1ccc([N+](=O)[O-])cc1-n1cnc(-c2ccc(C(F)(F)F)cc2)c1 [ONC0003084, cut129]",98.15
5,"Cc1cc(C)c(NC(=O)C2CC3CCC2C3)c(C)c1 (stereo not shown) [ONC0003035, ml213]",82.53
6,"O=C(CCCCCCCn1cc(-c2cccnc2)nn1)Nc1ccccc1-c1ccccc1 [ONC0000151, gpp78]",116.8
7,"CCCCc1nc(C)c(CC(=S)N(C)C)c(=O)n1Cc1ccc(-c2ccccc2-c2nnn[nH]2)cc1 [ONC0001851, fimasartan]",108.7
8,"COc1ccc(C(=O)C2CCN(CC(=O)N(Cc3nc4c(c(=O)[nH]3)COCC4)CC3CC3)CC2)cc1 [ONC0001799, nvptnks656]",96.54
9,"Cc1nc(NC(=O)N2CCC[C@H]2C(N)=O)sc1-c1ccnc(C(C)(C)C(F)(F)F)c1 [ONC0005036, alpelisib byl719]",108.4
10,"COC(=O)[C@H](Cc1cccc(C(=N)N)c1)[C@@H](C)NC(=O)c1ccc(-c2cc[n+]([O-])cc2)cc1 [ONC0001904, otamixaban]",84.17
11,"CC(C)NCC(O)COc1cccc2ccccc12 (stereo not shown) [ONC0003974, propranolol hydrochloride]",61.44
12,"Nc1n[nH]c2nc3ccccc3nc12 [ONC0002479, cdk15inhibitor]",71.95
13,"CC1=NN=C(c2ccc(N)cc2)c2cc3c(cc2C1)OCO3 [ONC0002253, gyki52466]",67.12
14,"Cc1c[nH]c(=O)n(CCCN2CCN(c3ccccc3OCC(F)(F)F)CC2)c1=O [ONC0001759, rs100329]",99.58
15,"Nc1ncnc2c1c(-c1cnc3[nH]ccc3c1)nn2C1CCCC1 [ONC0001430, pp121]",51.72
16,"COc1ccc2cc1Oc1ccc(cc1)C[C@H]1c3cc(c(OC)cc3CCN1C)Oc1c(OC)c(OC)cc3c1[C@H](C2)N(C)CC3 [ONC0004353, tetrandrine fanchinine]",115.8
17,"CCOCCOc1ccccc1C(N)=O [ONC0002384, etosalamide]",72.48
18,"Cc1ccc2c(c1)c1c(n2CCc2ccc(C)nc2)CCN(C)C1.Cl.Cl [ONC0000365, latrepirdine dimebon dihydrochloride]",70.26
19,"Sc1nc2ccccc2s1 [ONC0003675, benzodthiazole23hthione]",62.63
20,"CN1C(=O)C(F)=C[C@]2(C)[C@H]3CC[C@]4(C)[C@@H](C(=O)NCc5nc6cccnc6[nH]5)CC[C@H]4[C@@H]3CC[C@@H]12 [ONC0001125, mk0773]",62.11
21,"C/N=c1/nc(-c2ccccc2)n(-c2ccccc2)s1 [ONC0002549, sch202676]",72.78

row,SMILES,% viability [%]
1,"Nc1c(-c2cccc(C(F)(F)F)c2)nsc1C(=O)O [ONC0003699, amflutizole]",83.7
2,"C[C@@]12C[C@@]3(O)O[C@@H](O1)[C@]1(COC(=O)c4ccccc4)[C@H]3C[C@@]12O[C@@H]1O[C@H](CO)[C@@H](O)[C@H](O)[C@H]1O [ONC0004980, paeoniflorin]",83.59
3,"O=C(O)c1ccccc1-c1ccc(C(F)(F)F)cc1 [ONC0003712, xenalipin]",103.4
4,"O=C1CN(/N=C/c2ccc(-c3ccc([N+](=O)[O-])cc3)o2)C(O)=N1 [ONC0003073, dantrolene]",104.9
5,"Nc1ncnc2c1ncn2CCOCP(=O)(O)O [ONC0003286, adefovir]",54.24
6,"COc1cc(Nc2nc3ccccc3nc2NS(=O)(=O)c2ccc(NC(=O)c3ccc(C)c(OC)c3)cc2)cc(OC)c1 [ONC0004638, xl765]",95.99
7,"Cc1ccccc1-n1c(Cn2nc(-c3cccc(O)c3)c3c(N)ncnc32)nc2cccc(C)c2c1=O [ONC0005221, pik294]",112.5
8,"CO[C@@H]1[C@@H](OC2O[C@H](C)[C@@H](O[C@H]3C[C@@](C)(O)[C@@H](O)[C@H](C)O3)[C@H](N(C)C)[C@H]2O)[C@@H](CC=O)C[C@@H](C)[C@@H](O[C@H]2CC[C@H](N(C)C)[C@@H](C)O2)/C=C/C=C/C[C@@H](C)OC(=O)C[C@H]1O (stereo partly shown) [ONC0002448, spiramycin]",104.6
9,"CCC1=C(C)CN(C(=O)NCCc2ccc(S(=O)(=O)NC(=O)N[C@H]3CC[C@H](C)CC3)cc2)C1=O [ONC0003944, glimepiride]",79.11
10,"CCC(C)SSc1ncc[nH]1 (stereo not shown) [ONC0001121, px12]",79.55
11,"O=C(O)[C@H]1C[C@@H](CP(=O)(O)O)CCN1 [ONC0005491, cgs 19755]",127.7
12,"Cc1coc2c1C(=O)C(=O)c1c-2ccc2c(C)cccc12 [ONC0005263, tanshinone i]",142.7
13,"Oc1ccc(-c2nc3cc(O)cc(Br)c3o2)cc1 [ONC0001495, way200070]",68.78
14,"C1=Cc2cccc(OCC3CNCCO3)c2C1 (stereo not shown) [ONC0002142, indeloxazine]",65.99
15,"O=P(O)(O)C(Cl)(Cl)P(=O)(O)O [ONC0004812, clodronate disodium]",89.04
16,"CCCCOc1cc(C(=O)NCCN(CC)CC)c2ccccc2n1 [ONC0000553, dibucaine]",90.83
17,"CC[C@H]1OC(=O)[C@H](C)C(=O)[C@H](C)[C@@H](O[C@@H]2O[C@H](C)C[C@H](N(C)C)[C@H]2O)[C@](C)(OC)C[C@@H](C)C(=O)[C@H](C)[C@H]2N(CCCCn3cnc(-c4cccnc4)c3)C(=O)O[C@]12C [ONC0003877, telithromycin]",98.81
18,"N#C[C@@H]1C[C@@H]2C[C@@H]2N1C(=O)[C@@H](N)C12CC3CC(CC(O)(C3)C1)C2 [ONC0004839, saxagliptin bms477118onglyza]",92.67
19,"CC(=O)N1CCC(C(=O)N(CCCN2CCC(Cc3ccc(C(N)=O)cc3)CC2)c2ccc(C)c(Cl)c2)CC1 [ONC0000715, tak220]",84.93

# Nothing new here: an excerpt of the list.
row,SMILES,% viability [%]
1,"OC[C@H]1NCC[C@@H](O)[C@@H]1O [ONC0001187, fagomine]",79.21
2,"CCOc1ccccc1OCCN[C@H](C)Cc1ccc(OC)c(S(N)(=O)=O)c1 [ONC0005618, tamsulosinhcl]",58.79
3,"CN(C)/N=N/c1ccc(C(=O)O)cc1 [ONC0003759, cb10277]",106.9
